At least one structure is not confirmed: it was looked up by name or label, or the drawing left a doubt.
Tested on: human iPS cells
Assay: Marker gene expression (real-time RT-PCR) after induction of differentiation of human iPS cells into intestinal epithelial cells
Format: cell-based
Conditions: experiment 1, Windy, added on day 8 after the start of differentiation, vs control group (FIGS. 2 and 3)
Procedure: Induction of differentiation of human iPS cells into intestinal epithelial cells was started in a state where undifferentiated colonies of the human iPS cells accounted for about 70% of the culture dish. […] was induced to differentiate into endoderm by culturing for two days in Roswell Park Memorial Institute (RPMI)+Glutamax medium containing 0.5% FBS, 100 ng/mL activin A, 100 units/mL penicillin G, and 100 μg/mL streptomycin and then culturing for one day in RPMI+Glutamax medium, containing 2% FBS, 100 ng/mL activin A, 100 units/ml penicillin G, and 100 μg/mL streptomycin. Then, the cells were cultured in DMEM/F12 containing 2% FBS, 1% Glutamax, and 250 ng/mL FGF2 for 4 days to induce differentiation into intestinal stem cells. After this treatment, Y-27632 (Rho-binding kinase inhibitor) was added so that the concentration was 10 μmol/L, and the cells treated at 37° C. for 60 minutes in a CO2 incubator under the condition of 5% CO2/95% air were treated with actase for detaching. The detached cells were seeded on a 24-well cell culture plate coated with Matrigel which was diluted 30-fold with a human iPS cell culture medium and from which growth factors was removed. […]

## C=C[C@@]1(C)CC(=O)[C@]2(O)[C@@]3(C)[C@@H](O)CCC(C)(C)[C@@H]3[C@H](O)[C@H](OC(C)=O)[C@@]2(C)O1 [Forskolin]
  gene expression levels of various intestinal markers: significantly increased
